Source: PubChem BioAssay AID590 (National Center for Advancing Translational Sciences (NCATS), 2007)
About 6,500 (11%) of roughly 59,000 compounds were called active. The shares of active, inactive and inconclusive entries below differ from those in the screen. Cut-off read from the data, not from the text of the source: active = max dye-equivalent concentration above about 10 nM; inconclusive = mostly about 1.1 nM to 9.6 nM; inactive = weaker than that.

Experiment: qHTS Assay for Spectroscopic Profiling in A350 Spectral Region
Settings: Compound autofluorescence, 340/450 nm, Alexa 350 dye-equivalents; active compounds read high

| SMILES | max dye-equivalent concentration |
| --- | --- |
| CCOCCN1CCN(c2c(C)c(C)nc3cc(-c4cc(OC)cc(OC)c4)nn23)CC1 | inconclusive: 8.5 nM |
| CCOC(=O)c1[nH]c(C)c(C(=O)c2cc(F)ccc2F)c1C | inactive |
| O=C(NCc1ccc2c(c1)OCO2)C1CCCN1C(=O)Nc1cccc(Cl)c1 (stereo not given) | inactive |
| Cn1c(=O)c(CCc2ccccc2)nc2cnc(OCc3ccccc3)nc21 | inactive |
| COc1ccc(-n2c(N)c(C(=O)NCC3CCCO3)c3nc4ccccc4nc32)c(OC)c1 (stereo not given) | active: 1100 nM |
| CCN1CCC2(CC1)C(C#N)=C(N)Oc1c2sc2nc(C)cc(C)c12 | inconclusive: 2 nM |
| C=CCn1c(COc2ccc(F)cc2)nnc1SCC(=O)NC(=O)NCc1ccco1 | inactive |
| CCn1c(SCc2nc3ccccc3[nH]2)nnc1-c1ccncc1 | active: 10 nM |
| COc1cc(C(=O)OCC(=O)c2cc(C)n(C)c2C)cc(NC(=O)c2ccco2)c1OC | active: 95 nM |
| CCc1ccc(N2CSC3=C(C#N)C(c4cccs4)CC(=O)N3C2)cc1 (stereo not given) | inconclusive: 2.6 nM |
| Cc1cc(Cl)c(S(N)(=O)=O)cc1OCC(N)=O | inconclusive: 1.3 nM |
| CCSc1cc(C2C(C(=O)OC)=C(C)NC3=C2C(=O)CCC3)c(C)o1 (stereo not given) | inconclusive: 4.7 nM |
| O=C(Nc1cnn(Cc2ccc(F)cc2)c1)c1cnccn1 | inconclusive: 2.2 nM |
| O=C(c1ccco1)N1CCN(C(c2cccs2)c2nnnn2C2CCCCC2)CC1 (stereo not given) | inconclusive: 1.4 nM |
| O=C(Nc1ccc2c(c1)nc1n2CCOC1)C1CCCCC1 | inconclusive: 1.1 nM |
| N#Cc1nc(-c2ccccc2F)oc1NCCc1ccccn1 | inconclusive: 6.6 nM |
| CC(=NCc1ccc2c(c1)OCO2)C1=C(O)c2ccccc2C1=O | inactive |
| COc1cc(CN2CCCCC2)cc2cc(C(=O)O)c(=O)oc12 | inactive |
| O=C(COc1ccc(Cl)cc1)OCC(=O)N1CCCCCC1 | inconclusive: 1.3 nM |
| COCC(=O)Nc1nc2ccc(S(C)(=O)=O)cc2s1 | inconclusive: 3.2 nM |
| CSc1ccc(-c2c(C#N)c(N)nc3c2c(C)nn3-c2ccccc2)cc1 | active: 360 nM |
| CC(C)CCSc1nc(N)c(C#N)cc1C#N | inconclusive: 8.8 nM |
| O=C1CCC(=O)c2oc3ccccc3c2N1 | inconclusive: 4.2 nM |
| Cc1cc2ncn(/N=C/c3cccnc3)c2cc1C | inconclusive: 3 nM |

| SMILES | max dye-equivalent concentration |
| --- | --- |
| COCc1cc(=O)[nH]c(/N=C(\N)Nc2ccc(C)cc2)n1 | active: 530 nM |
| COc1ccc(CNc2nc3c(c(C(F)(F)F)n2)CCCCC3)cc1 | inactive |
| Cc1ccc(S(=O)(=O)c2c(N)n(CC3CCOC3)c3nc4ccccc4nc23)cc1 (stereo not given) | active: 2400 nM |
| CC1CN(c2oc(-c3ccco3)nc2S(=O)(=O)c2ccccc2)CC(C)O1 (stereo not given) | inactive |
| Cc1ccc(-n2nc(C)c3c(-c4cccs4)c(C#N)c(N)nc32)cc1 | active: 150 nM |
| C/C=C1\C(=O)C[C@@H]2[C@@H]3CCC4=CC(=O)CC[C@@]4(C)[C@H]3CC[C@@]12C | inconclusive: 7.9 nM |
| O=C(N1CCOCC1)N1CCN(Cc2ccccc2)CC1 | inconclusive: 2 nM |
| Cc1ccc(C(=O)Nc2cnc3sc(C)nn3c2=O)cc1 | inactive |
| Cc1noc(C)c1-c1cncnc1NCc1cccnc1 | inactive |
| CCOC(=O)CSc1nnc(N)s1 | inactive |
| Oc1ccc(CNc2ccccc2)c2cccnc12 | inactive |
| CN1C(=O)c2ccc(NC(=O)C3CCCCC3)cc2C1=O | active: 320 nM |
| Nc1nccc(Nc2ccc(S(N)(=O)=O)cc2)n1 | inactive |
| CCOC(=O)C1(Cc2ccc(O)cc2)NC(c2ccco2)C2C(=O)N(c3ccccc3F)C(=O)C21 (stereo not given) | inactive |
| Nc1c(S(=O)(=O)c2cccs2)c2nc3ccccc3nc2n1Cc1ccc2c(c1)OCO2 | active: 170 nM |
| NC(N)=NC[C@@H]1COC2(CCCCC2)O1 | inactive |
| Cc1ccc2cc(CN(CCCN(C)C)C(=O)NCc3ccccc3)c(=O)[nH]c2c1C | inconclusive: 10 nM |
| Cc1cc(F)ccc1S(=O)(=O)Nc1ccccc1C(=O)Nc1ccc2[nH]c(=O)[nH]c2c1 | inconclusive: 1.2 nM |
| CCCCOc1ccc(C2CC(=O)N(C)C2=O)cc1 (stereo not given) | inconclusive: 1.6 nM |
| C[C@H](Br)C(=O)Nc1ccc(C(=O)O)c(O)c1 | inactive |
| COc1ccc(CCn2c(N)c(C(=O)NCc3ccco3)c3nc4ccccc4nc32)cc1OC | active: 68 nM |
| Cc1cc(C(=O)NCC(c2ccco2)N(C)C)no1 (stereo not given) | inconclusive: 1.1 nM |
| CCc1ccc(N/C(SCc2cccc(F)c2)=C(/C#N)C(=O)NCc2ccco2)cc1 | inconclusive: 2.8 nM |
| On1onc2c3cc(-c4ccccc4)nc3ccc21 | inactive |

| SMILES | max dye-equivalent concentration |
| --- | --- |
| CC(=O)Nc1ccc2nc(-c3cccnc3)[nH]c2c1 | inactive |
| COc1cc(C(=O)Nc2ccncc2)cc(OC)c1OC | inconclusive: 1.1 nM |
| O=C(c1cc(C(F)(F)F)cc(C(F)(F)F)c1)N1CCC[C@@]2(CCN(Cc3ccccc3)C2)C1 | inactive |
| O=C1C(O)=C(O)C(=O)C(O)=C1O | inconclusive: 4.4 nM |
| Cc1nn(-c2ccc(F)cc2)c2sc(C(=O)O)cc12 | inconclusive: 2.5 nM |
| Cc1cc2c(c(=O)n1Cc1ccco1)C(c1cccnc1)C(C#N)=C(N)O2 (stereo not given) | inconclusive: 1.9 nM |
| CC(C(=O)N(C)C)N(C#N)c1nc(N(C)C)nc(N(C)C)n1 (stereo not given) | inconclusive: 2.3 nM |
| Cn1cccc1C(=S)N=P(C1CCCCC1)(N1CCOCC1)N1CCOCC1 | inactive |
| COCCCn1c(=S)[nH]c2ccc(N3CCOCC3)cc2c1=O | active: 36 nM |
| Cc1ccc2c(c1C)NC(C)CC2C (stereo not given) | inconclusive: 8.1 nM |
| COc1ccc(CCN2C(=O)C3C4C=CC(C4)C3C2=O)cc1OC (stereo not given) | inconclusive: 1.7 nM |
| COc1ccc(Oc2ncc3nc(-c4cccs4)c(=O)n(C)c3n2)cc1 | inactive |
| Cc1cc(C)c2[nH]c(=O)c(=O)[nH]c2c1 | active: 20 nM |
| O=C(OCC(=O)N1CCN(C(=O)c2ccco2)CC1)c1ccccc1C(=O)c1ccccc1 | inactive |
| Cc1ccc(C(=O)C2=C(O)C(=O)N(c3ncccn3)C2c2ccc(Cl)cc2)o1 (stereo not given) | inconclusive: 2.8 nM |
| CCOC(=O)c1ccc(NC(=O)CCc2nc(-c3ccccc3)no2)cc1 | inconclusive: 6.4 nM |
| O=C(NCCN1CCOCC1)c1cc(=O)[nH]c2ccc(Br)cc12 | inconclusive: 5.4 nM |
| COc1ccc(-c2cc3ccc(OCc4nn[nH]n4)cc3oc2=O)cc1 | active: 11000 nM |
| COc1ccc(OC)c(C(c2nnnn2Cc2ccccc2)N2CCN(C)CC2)c1 (stereo not given) | inconclusive: 1.8 nM |
| CCCCOC(=O)Cn1c(=N)n(CCC)c2ccccc21 | inactive |
| CC(C)CC(c1nnnn1CC1CCCO1)N1CCN(C2CCCC2)CC1 (stereo not given) | inconclusive: 1.5 nM |
| Cc1ccc(C(=O)C2COC(=O)C2)cc1 (stereo not given) | inconclusive: 5 nM |
| COc1ccccc1NC(=O)CN1CCN(Cc2ccccc2)CC1 | inconclusive: 1.9 nM |
| N#CCSc1nc(-c2ccccc2)cs1 | inconclusive: 1.2 nM |

In a second layout: entries from further up.
CCn1c(SCc2nc3ccccc3[nH]2)nnc1-c1ccncc1
  max dye-equivalent concentration: active: 10 nM
CCc1ccc(N2CSC3=C(C#N)C(c4cccs4)CC(=O)N3C2)cc1 (stereo not given)
  max dye-equivalent concentration: inconclusive: 2.6 nM

Remaining list, next part

| SMILES | max dye-equivalent concentration |
| --- | --- |
| O=C(Oc1ccc2cccc(OC(=O)N3CCOCC3)c2c1)N1CCOCC1 | inconclusive: 4.3 nM |
| CN1CCCC[C@@H]1CCN1CCCCC1 | inactive |
| Cc1cc(C)c(S(=O)(=O)n2nc(C)c(Br)c2C)c(C)c1 | inconclusive: 3.2 nM |
| COCCn1c(=O)c(-c2cccc(C#N)c2)nc2cnc(Oc3ccc(OC)cc3)nc21 | inactive |
| O=C(O)c1cc(=O)[nH]c(=S)[nH]1 | inactive |
| O=C(Oc1ccc(-c2ccccc2)cc1)N1CCOCC1 | inconclusive: 6.3 nM |
| Cc1cc(N2C(=O)C(=O)/C(=C(/O)c3ccc(F)cc3)C2c2cccc(Br)c2)no1 (stereo not given) | inconclusive: 1.8 nM |
| COC(=O)c1ccc2c(c1)S(=O)(=O)NC(=NCCCN1CCOCC1)S2 | inconclusive: 3.3 nM |
| COc1cccc(-c2nn3c(-c4ccco4)nnc3s2)c1 | inconclusive: 2.3 nM |
| COc1cc2nc(NC(=O)c3ccc(Cl)cc3)[nH]c(=O)c2cc1OC | active: 160 nM |
| O=c1oc2ccccc2cc1-c1nc2ccccc2o1 | active: 12000 nM |
| CC1(C)CC(=O)C2=C(C1)NCN(Cc1ccccc1)C2 | inconclusive: 5.1 nM |
| COC(=O)c1[nH]c2ccccc2c1NC(=O)CN1CCN(c2cccc(OC)c2)C(C)C1 (stereo not given) | inconclusive: 2.7 nM |
| COc1ccc(C2CC(=O)c3c(C)nc(N4CCN(c5ccccc5)CC4)nc3C2)cc1 (stereo not given) | inconclusive: 6.2 nM |
| O=C1CC(c2ccccc2)n2nc(NS(=O)(=O)c3ccccc3)nc2N1 (stereo not given) | inconclusive: 1.7 nM |
| [Li+] | inactive |
| O=c1c(CCc2ccccc2)nc2cncnc2n1Cc1ccc(F)cc1 | inactive |
| O=C(Cn1nnc2c(cnn2-c2ccc(F)cc2)c1=O)OC1CCCCC1 | inconclusive: 2 nM |
| Cc1nn2c(N3CCN(c4ccccn4)CC3)cc(C(C)C)nc2c1-c1ccccc1 | active: 270 nM |
| CCOC(=O)Cc1csc(NC(=O)CSc2nnc(C(C)C)n2CC)n1 | inconclusive: 1.1 nM |
| Cc1ccc(-n2c(N)c(-c3nc4ccccc4n3C)sc2=S)cc1 | inconclusive: 3.1 nM |
| CSc1nc(N)c(C#N)c(-c2ccc(Cl)cc2)c1C#N | active: 42 nM |
| CC(=O)NC1CC2CCCC(C1)N2CC(=O)NCc1ccc(F)cc1 (stereo not given) | inconclusive: 2.8 nM |

2 compounds picked at random from the list so far:

| SMILES | max dye-equivalent concentration |
| --- | --- |
| O=C(Oc1ccc2cccc(OC(=O)N3CCOCC3)c2c1)N1CCOCC1 | inconclusive: 4.3 nM |
| Cc1cc(N2C(=O)C(=O)/C(=C(/O)c3ccc(F)cc3)C2c2cccc(Br)c2)no1 (stereo not given) | inconclusive: 1.8 nM |
